Experimental data: paper PMC7393984
Results are given in words; binding and its absence hold for the method and conditions named. Some results given as binding are weak or reduced against the parent protein; the word gives no strength.

The chains behind the UniProt entries cited, without tags or fusion partners.
UniProt A0R5F3: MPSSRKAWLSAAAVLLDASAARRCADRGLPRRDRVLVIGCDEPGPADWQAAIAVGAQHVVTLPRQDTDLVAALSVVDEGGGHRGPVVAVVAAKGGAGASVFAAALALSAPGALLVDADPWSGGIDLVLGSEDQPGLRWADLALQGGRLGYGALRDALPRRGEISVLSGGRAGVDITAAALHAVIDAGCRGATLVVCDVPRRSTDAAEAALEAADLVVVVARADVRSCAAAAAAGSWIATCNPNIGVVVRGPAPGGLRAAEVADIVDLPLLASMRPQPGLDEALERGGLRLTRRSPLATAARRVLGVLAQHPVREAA

Target: MSMEG_6171, yeast two-hybrid fusion (pGBKT7:MSMEG_6171) (Mycobacterium smegmatis) (UniProt A0R5F3)
Test: two-hybrid; GAL4-based Matchmaker Gold Yeast Two-Hybrid system; MSMEG_6171 as bait in pGBKT7, prey proteins in pGADT7AD

MSMEG_6171, yeast two-hybrid fusion (pGBKT7:MSMEG_6171) (from UniProt A0R5F3 1-316)
binding: binds
